Results are given in words; binding and its absence hold for the method and conditions named. In cells and extracts the contact can be indirect. Sequences can lack the tags named with a protein.
T1: GST followed by the N-terminal 709 residues of SPG15 (UniProt Q68DK2)
T1 sequence: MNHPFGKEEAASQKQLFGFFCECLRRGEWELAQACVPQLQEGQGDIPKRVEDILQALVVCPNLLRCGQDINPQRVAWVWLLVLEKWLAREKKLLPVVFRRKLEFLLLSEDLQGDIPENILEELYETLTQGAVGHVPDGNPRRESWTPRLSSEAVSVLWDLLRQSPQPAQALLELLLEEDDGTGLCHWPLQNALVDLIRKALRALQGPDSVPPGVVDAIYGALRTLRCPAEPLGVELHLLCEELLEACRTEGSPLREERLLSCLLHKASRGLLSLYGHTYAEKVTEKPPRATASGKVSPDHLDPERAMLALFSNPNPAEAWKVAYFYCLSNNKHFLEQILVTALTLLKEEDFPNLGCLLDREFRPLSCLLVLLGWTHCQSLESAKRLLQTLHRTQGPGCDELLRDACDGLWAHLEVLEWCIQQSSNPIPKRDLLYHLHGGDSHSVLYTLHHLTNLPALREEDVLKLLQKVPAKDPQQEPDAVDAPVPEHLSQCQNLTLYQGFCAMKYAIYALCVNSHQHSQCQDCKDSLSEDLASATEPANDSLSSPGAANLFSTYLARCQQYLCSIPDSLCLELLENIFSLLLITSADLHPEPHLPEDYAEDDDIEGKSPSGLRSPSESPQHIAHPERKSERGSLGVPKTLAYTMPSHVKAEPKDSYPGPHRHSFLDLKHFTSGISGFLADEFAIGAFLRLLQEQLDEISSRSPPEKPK

Protein sequences, listed by entry. Tags and fused reporters are not part of them. Residues count along the entry.
UniProt O43493, residues 22-437: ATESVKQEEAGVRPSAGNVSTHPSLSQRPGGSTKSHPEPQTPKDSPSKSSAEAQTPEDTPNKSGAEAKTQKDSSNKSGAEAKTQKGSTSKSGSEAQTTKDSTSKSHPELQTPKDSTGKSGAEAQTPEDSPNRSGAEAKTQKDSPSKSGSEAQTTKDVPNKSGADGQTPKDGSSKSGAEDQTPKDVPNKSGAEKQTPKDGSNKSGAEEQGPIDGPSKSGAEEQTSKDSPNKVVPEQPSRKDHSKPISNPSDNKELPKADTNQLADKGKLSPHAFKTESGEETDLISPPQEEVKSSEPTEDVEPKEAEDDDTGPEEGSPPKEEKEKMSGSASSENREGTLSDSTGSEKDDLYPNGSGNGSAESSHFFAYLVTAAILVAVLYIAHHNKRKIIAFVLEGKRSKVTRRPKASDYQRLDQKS


Key:
[1] = molecular target: T1, GST followed by the N-terminal 709 residues of SPG15; test: pull-down; GST_15N1–709 as bait in HeLa cell lysate (PBS with 0.5% Triton X-100, pH 7.4; 2.5 mg/ml protein, 50 ug bait for every 4 ml), recovered with glutathione Sepharose 4B; western blot, bands quantified with IMAGEJ; only the target purified
[2] = molecular target: T1, GST followed by the N-terminal 709 residues of SPG15; test: pull-down; GST_15N1–709 as bait in SH-SY5Y cell lysate (PBS with 0.5% Triton X-100, pH 7.4; 2.5 mg/ml protein, 50 ug bait for every 4 ml), recovered with glutathione Sepharose 4B; western blot, bands quantified with IMAGEJ; only the target purified

Row | binding [1] | binding [2] | Molecule
1 | no binding | no binding | TGN46 (from UniProt O43493 22-437)
2 | no binding | no binding | AP-5 ζ subunit (protein, UniProt O43299 1-807) MFSAGAESLLHQAREIQDEELKKFCSRICKLLQAEDLGPDTLDSLQRLFLIISATKYSRRLEKTCVDLLQATLGLPACPEQLQVLCAAILREMSPSDSLSLAWDHTQNSRQLSLVASVLLAQGDRNEEVRAVGQGVLRALESRQPEGPSLRHLLPVMAKVVVLSPGTLQEDQATLLSKRLVDWLRYASLQQGLPHSGGFFSTPRARQPGPVTEVDGAVATDFFTVLSSGHRFTDDQWLNVQAFSMLRAWLLHSGPEGPGTLDTDDRSEQEGSTLSVISATSSAGRLLPPRERLREVAFEYCQRLIEQSNRRALRKGDSDLQKACLVEAVLVLDVLCRQDPSFLYRSLSCLKALHGRVRGDPASVRVLLPLAHFFLSHGEAAAVDSEAVYQHLFTRIPVEQFHSPMLAFEFIQFCRDNLHLFSGHLSTLRLSFPNLFKFLAWNSPPLTSEFVALLPALVDAGTALEMLHALLDLPCLTAVLDLQLRSAPAASERPLWDTSLRAPSCLEAFRDPQFQGLFQYLLRPKASGATERLAPLHQLLQPMAGCARVAQCAQAVPTLLQAFFSAVTQVADGSLINQLALLLLGRSDSLYPAPGYAAGVHSVLSSQFLALCTLKPSLVVELARDLLEFLGSVNGLCSRASLVTSVVWAIGEYLSVTYDRRCTVEQINKFFEALEALLFEVTQCRPSAALPRCPPQVVTVLMTTLTKLASRSQDLIPRASLLLSKMRTLAHSPATSSTHSEEGAEAIRTRATELLTLLKMPSVAQFVLTPSTEVCSPRYHRDANTALPLALRTVSRLVEREAGLMPG
